Drawing on publication PMC8667902 (Journal of Enzyme Inhibition and Medicinal Chemistry, 2021), this text covers Papp for 1 compound.

This series can be described thus: PAMPA-BBB.

In turn, `CN1C(=O)CN=C(c2ccccc2)c2cc(Cl)ccc21` [Diazepam] came in with an apparent permeability (Papp) of 13.1 ± 0.79 ×10⁻⁶ cm/s.
